Changes are numbered by the printed parent chain. These are yes or no findings as the source states them, for the method shown. In cells and extracts the contact can be indirect. Some binding calls cover weakened binding; strength is not graded here.

Protein sequences, listed by entry. Tags and fused reporters are not part of them.
UniProt Q9UNE7: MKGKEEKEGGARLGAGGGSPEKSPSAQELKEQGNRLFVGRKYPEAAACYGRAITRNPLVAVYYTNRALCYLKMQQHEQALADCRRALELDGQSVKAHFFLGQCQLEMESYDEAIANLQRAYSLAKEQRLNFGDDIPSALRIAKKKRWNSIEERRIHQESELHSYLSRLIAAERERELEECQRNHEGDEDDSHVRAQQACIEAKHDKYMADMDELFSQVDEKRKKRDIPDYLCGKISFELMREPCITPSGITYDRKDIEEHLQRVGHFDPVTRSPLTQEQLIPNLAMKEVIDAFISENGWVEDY

The text below walks through data of paper PMC11977203.

In test [1] the target is T1, BCAT1 K39R mutant (UniProt P54687).
T1 sequence: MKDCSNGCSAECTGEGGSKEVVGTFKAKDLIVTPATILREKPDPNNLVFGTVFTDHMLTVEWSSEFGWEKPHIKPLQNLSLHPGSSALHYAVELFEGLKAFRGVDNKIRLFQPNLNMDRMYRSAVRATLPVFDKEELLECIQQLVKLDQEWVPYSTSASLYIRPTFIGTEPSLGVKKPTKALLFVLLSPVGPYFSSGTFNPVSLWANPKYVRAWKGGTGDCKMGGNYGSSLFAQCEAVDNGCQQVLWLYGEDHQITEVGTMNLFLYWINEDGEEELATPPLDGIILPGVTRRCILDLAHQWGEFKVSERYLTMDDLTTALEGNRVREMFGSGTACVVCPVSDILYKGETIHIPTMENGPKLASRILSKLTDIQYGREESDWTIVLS
Nature of the test: co-IP; CHIP with wild-type BCAT1 or BCAT1 K39R mutant in U251 cells, with or without SIRT5 overexpression; western blot.

In test [2] the target is T2, wild-type BCAT1 (UniProt P54687).
T2 sequence: T1 sequence with R39K
Described as above.

On to “Flag-tagged CHIP (from UniProt Q9UNE7 1-303) (enzyme)”, for which the binding entry in test [1] and in test [2] was “binds” in each case.
